Drawing on article PMC8582188, this text covers binding for two molecules.

Chains of the proteins cited; added tags and fusions are not shown. Residues count along the entry.
UniProt P07251, residues 36-545: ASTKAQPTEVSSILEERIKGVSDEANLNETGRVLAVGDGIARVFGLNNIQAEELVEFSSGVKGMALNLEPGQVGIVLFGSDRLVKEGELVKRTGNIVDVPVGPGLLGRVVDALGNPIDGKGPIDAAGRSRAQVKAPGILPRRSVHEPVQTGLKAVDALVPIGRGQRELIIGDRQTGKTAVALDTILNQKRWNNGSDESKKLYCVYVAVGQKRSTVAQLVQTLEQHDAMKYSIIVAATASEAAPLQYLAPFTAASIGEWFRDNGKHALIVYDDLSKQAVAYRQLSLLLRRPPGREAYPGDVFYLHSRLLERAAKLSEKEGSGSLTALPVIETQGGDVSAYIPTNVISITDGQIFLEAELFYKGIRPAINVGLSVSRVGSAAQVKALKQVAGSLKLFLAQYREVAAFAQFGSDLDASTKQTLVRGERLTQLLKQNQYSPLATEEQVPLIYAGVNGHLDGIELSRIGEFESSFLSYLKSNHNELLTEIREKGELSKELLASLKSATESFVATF

For one assay, the target named is Atp1-HA3 (S. cerevisiae) (UniProt P07251). In words: co-IP; W303 cells with tagged plasmids grown in SC medium with 3% glycerol; lysis buffer 50 mM NaCl, 0.1% NP-40, 150 mM Tris-HCl pH 8.0; anti-HA or anti-Myc antibody and protein G Sepharose; in Fig. 4A precipitated by an HA antibody and detected by a Myc antibody.
The next assay concerns the target T1, Atp3-HA3 (S. cerevisiae) (UniProt P38077).
T1 sequence: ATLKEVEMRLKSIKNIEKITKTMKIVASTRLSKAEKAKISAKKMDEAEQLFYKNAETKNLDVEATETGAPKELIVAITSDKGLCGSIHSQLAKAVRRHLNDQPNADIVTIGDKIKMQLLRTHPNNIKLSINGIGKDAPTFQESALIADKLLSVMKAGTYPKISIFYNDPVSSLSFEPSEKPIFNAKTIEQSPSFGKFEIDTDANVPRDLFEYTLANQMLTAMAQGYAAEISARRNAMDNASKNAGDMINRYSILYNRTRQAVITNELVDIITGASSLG
The description is as above.

Assay [1] has as its target recombinant His6-Atp1 (S. cerevisiae) (UniProt P07251). In words: pull-down; Talon-bead-bound His-tagged proteins incubated with 5 ug GST proteins; 20 mM Tris-HCl pH 7.4, 100 mM NaCl, 0.1% NP-40, 4 °C, 1 h; washed with 50 mM imidazole; immunoblot; both purified.

Results are given in words; binding and its absence hold for the method and conditions named. For part of these data: Binding seen in cells or lysates may run through a third protein. Some entries that bind do so weakly or less than the wild type. Sequences can lack the tags named with a protein.

B1: Ids2-Myc13 (protein, UniProt P46958 1-469)
chain: MDNQQESISEDITGDLAAAVRKSWSESQDNPLLLNFNNSPIGTPTDRYSPEPATMMEGNAMNLSSLARGSTQQQQRLYGSSQTREKSDQQQQDYQLFKHHYSLGQETRESVSDILNDLTLGSPEPSERASPIRQPSVDVPPLTTRRSSIQDVQWIRHLLNPRSSFSGASSNEPTNSPGDFLNQSRAWITILHDSSAESLQAVIVLAESLKNVNSQYNLWVLHSSEVNAFQLAQVGIKTLIIDEYINLFMNFGTGSGFSASSQSTETKGELNFKWCKLFLFFSLIDRFELICYLSPTCLVLQNIDELLESTEVSDEIDNETCVLLSNKVNYINEDLVSVNQDQSSAENYDDDPQIIILKPNRAVAMCIKEYFTIYGNDFEGESKRSMFHQMNDLQIMKALFGDKWSYIDSVGYCAVPIASVPANRLNYKIIEFKILKPWERQNYIAAGQHRESIMNKWLDLWRDFLNQAN
Regarding B1, the binding entry with Atp1-HA3 (S. cerevisiae) and in the assay with Atp3-HA3 (S. cerevisiae) was “binds” in each case.

B2: recombinant GST-tagged Ids2 (protein, UniProt P46958 1-469)
chain: B1 chain
In the case of B2, the binding entry in assay [1] was “binds weakly”.
